Paper PMC11332193
Results are given in words; binding and its absence hold for the method and conditions named. Binding seen in cells or lysates may run through a third protein. Some results given as binding are weak or reduced against the parent protein; the word gives no strength.

The chains behind the UniProt entries cited, without tags or fusion partners. Residues count along the entry.
UniProt P05121, residues 24-402: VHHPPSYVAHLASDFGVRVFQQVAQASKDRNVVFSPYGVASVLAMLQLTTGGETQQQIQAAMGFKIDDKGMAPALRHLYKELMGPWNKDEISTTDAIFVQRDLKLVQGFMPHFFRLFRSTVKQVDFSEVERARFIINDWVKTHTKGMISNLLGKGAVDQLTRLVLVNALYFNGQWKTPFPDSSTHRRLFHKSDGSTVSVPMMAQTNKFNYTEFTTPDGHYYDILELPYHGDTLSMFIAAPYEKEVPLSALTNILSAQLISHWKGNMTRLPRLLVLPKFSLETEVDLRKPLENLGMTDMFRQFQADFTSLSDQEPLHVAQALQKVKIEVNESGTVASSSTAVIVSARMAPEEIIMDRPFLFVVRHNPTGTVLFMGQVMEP
UniProt P29590: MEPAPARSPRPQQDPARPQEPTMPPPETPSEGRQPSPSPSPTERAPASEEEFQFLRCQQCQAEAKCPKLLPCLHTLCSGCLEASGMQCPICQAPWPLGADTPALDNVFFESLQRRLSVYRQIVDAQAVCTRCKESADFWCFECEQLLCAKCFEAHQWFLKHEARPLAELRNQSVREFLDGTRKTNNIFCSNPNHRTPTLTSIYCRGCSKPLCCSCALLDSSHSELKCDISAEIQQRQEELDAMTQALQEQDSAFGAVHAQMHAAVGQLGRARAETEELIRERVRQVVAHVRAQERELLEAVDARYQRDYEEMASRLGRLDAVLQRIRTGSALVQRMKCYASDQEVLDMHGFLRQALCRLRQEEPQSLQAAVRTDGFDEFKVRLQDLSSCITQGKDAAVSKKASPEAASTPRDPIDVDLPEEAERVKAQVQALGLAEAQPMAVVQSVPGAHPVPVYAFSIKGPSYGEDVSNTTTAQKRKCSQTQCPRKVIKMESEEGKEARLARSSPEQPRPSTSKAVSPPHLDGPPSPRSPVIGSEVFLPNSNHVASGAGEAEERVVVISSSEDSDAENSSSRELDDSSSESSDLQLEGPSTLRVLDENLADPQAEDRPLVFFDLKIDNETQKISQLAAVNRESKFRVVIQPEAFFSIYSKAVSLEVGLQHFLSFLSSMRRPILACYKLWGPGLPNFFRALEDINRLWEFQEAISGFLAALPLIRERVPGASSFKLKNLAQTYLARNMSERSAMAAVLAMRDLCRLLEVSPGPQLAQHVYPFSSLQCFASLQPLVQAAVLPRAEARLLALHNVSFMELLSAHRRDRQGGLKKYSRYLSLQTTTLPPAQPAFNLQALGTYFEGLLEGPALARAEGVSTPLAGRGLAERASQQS

Target: Plasminogen activator inhibitor-1 (human (endogenous in HUVEC)) (UniProt P05121)
Assay: co-IP; nuclear lysate of HUVECs incubated overnight with 3 ug PAI-1 (C-09) antibody, protein G microbeads 1 h (Nuclear Co-IP-Kit, Active Motif); Western blot for PAI-1 and PML

binding: binds
Substance: Promyelocytic Leukemia Protein (from UniProt P29590 1-882)
